Earlier results in patent US9561245B2, “Combination treatments for melanoma” (priority 2012, dated 2017).
For at least one compound, name, drawing or mass did not settle the structure.

Tested on: Bcr-Abl+ leukemia cell lines
Conditions: by blocking the phosphorylation of Bcr-Abl; cited from earlier work

Cc1ccc(NC(=O)c2ccc(CN3CC[C@H](N(C)C)C3)c(C(F)(F)F)c2)cc1Nc1nccc(-c2cncnc2)n1 [bafetinib]
cell death: induces both caspase-mediated and caspase-independent cell death
